Values joined by “and” are separate entries in the source; they are usually repeats but may differ in a detail not shown here. Equal values may be shown once. Further values from the same series stand in other lists.
Tested on: serum uric acid
Experiment: Multi-dose Phase I clinical trial, serum uric acid (sUA), once daily for 10 days
Type: in vivo, human
Excerpt: A Phase 1, Randomized, Double-Blind, Placebo-Controlled Study to Evaluate Safety, Tolerability, Pharmacokinetics and Preliminary Food Effect of Multiple Rising Doses of a URAT1 Inhibitor, in Healthy Adult Male Volunteers.
Fasted subjects receive oral doses of active or placebo, once daily, for 10 days, at the following doses:
36 subjects in 3 dose groups, 12 subjects/group, are randomized […] to receive active (9/group) or placebo ([…]). All study procedures are the same regardless of whether subject receives active or placebo. Total duration of subject participation, including screening period, is ˜2-4 weeks, and the total volume of blood collected from each subject during the entire study <500 mL, (less than typically collected during a volunteer blood donation).
5 mg, active and placebo, tablets packaged in 35 count HDPE bottles, stored at controlled room temperature (15-30° C.). Placebo tablets are designed to match the active tablets—identical size, form, taste, and color, and containing the same excipients. 1 mg doses were administered as oral solutions.
Subjects dosed in the morning of Days 1-10 with ˜240 mL of room temp water.
Urine, serum and plasma samples collected periodically
PD samples frozen (−20° C.) and stored; all samples from a given subject assayed in a single analytical run.

[1] = Time 240, post dosing, group 9, 10 mg once daily for 10 days, individual subjects 3-11 (active)
[2] = Time 246, post dosing, group 9, 10 mg once daily for 10 days, individual subjects 3-11 (active)
[3] = Time 252, post dosing, group 9, 10 mg once daily for 10 days, individual subjects 3-11 (active)
[4] = Time 264, post dosing, group 9, 10 mg once daily for 10 days, individual subjects 3-11 (active)
[5] = Time 270, post dosing, group 9, 10 mg once daily for 10 days, individual subjects 3-11 (active)
[6] = Time 288, post dosing, group 9, 10 mg once daily for 10 days, individual subjects 3-11 (active)
[7] = Time 312, post dosing, group 9, 10 mg once daily for 10 days, individual subjects 3-11 (active)
[8] = group 7, 1 mg once daily for 10 days, Time 0, individual subjects 4-12
[9] = group 7, 1 mg once daily for 10 days, Time 6, individual subjects 4-12
[10] = group 7, 1 mg once daily for 10 days, Time 12, individual subjects 4-12
[11] = group 7, 1 mg once daily for 10 days, Time 24, individual subjects 4-12
[12] = group 7, 1 mg once daily for 10 days, Time 48, individual subjects 4-12
[13] = group 7, 1 mg once daily for 10 days, Time 72, individual subjects 4-12

## CC(C)(Sc1ccncc1-c1ccc(C#N)c2ccccc12)C(=O)O [2-((3-(4-cyanonaphthalen-1-yl)pyridin-4-yl)thio)-2-methylpropanoic acid]
Time 228, post dosing, group 9, 10 mg once daily for 10 days, individual subjects 3-11 (active)
  Absolute sUA concentration: 2.7 mg/dL and 2.3 mg/dL (2×) and 3.7 mg/dL and 2.4 mg/dL and 2.1 mg/dL and 2.9 mg/dL and 2.5 mg/dL and 3.1 mg/dL
[1]
  % sUA change (from baseline): −55.6% and −48.1% and −38.7% and −50.7% and −60.3% and −62.1% and −35.9% and −50.0% and −35.7%
  Absolute sUA concentration: 2.4 mg/dL and 2.7 mg/dL (2×) and 4.9 mg/dL and 3.6 mg/dL (2×) and 2.5 mg/dL and 4.1 mg/dL and 3.1 mg/dL
[2]
  % sUA change (from baseline): −53.7% and −40.4% and −32.5% and −50.7% and −52.9% and −51.5% and −32.8% and −41.9% and −28.6%
  Absolute sUA concentration: 2.5 mg/dL and 3.1 mg/dL and 5.4 mg/dL and 3.6 mg/dL (2×) and 3.2 mg/dL (2×) and 4.3 mg/dL and 4.0 mg/dL
[3]
  % sUA change (from baseline): −50.0% and −44.2% and −33.8% and −54.8% and −54.4% and −53.0% and −31.3% and −37.1% and −33.9%
  Absolute sUA concentration: 2.7 mg/dL and 2.9 mg/dL and 5.3 mg/dL and 3.3 mg/dL and 3.1 mg/dL (2×) and 4.4 mg/dL and 3.9 mg/dL and 3.7 mg/dL
[4]
  % sUA change (from baseline): −50.0% (2×) and −38.5% and −28.8% and −50.7% and −43.9% and −23.4% and −32.3% and −32.1%
  Absolute sUA concentration: 2.7 mg/dL and 3.2 mg/dL and 5.7 mg/dL and 3.6 mg/dL and 3.4 mg/dL and 3.7 mg/dL and 4.9 mg/dL and 4.2 mg/dL and 3.8 mg/dL
[5]
  % sUA change (from baseline): −50.0% and −38.5% and −28.8% and −47.9% and −48.5% and −36.4% and −20.3% and −25.8% and −28.6%
  Absolute sUA concentration: 2.7 mg/dL and 3.2 mg/dL and 5.7 mg/dL and 3.8 mg/dL and 3.5 mg/dL and 4.2 mg/dL and 5.1 mg/dL and 4.6 mg/dL and 4.0 mg/dL
[6]
  % sUA change (from baseline): −48.1% and −36.5% and −28.8% and −45.2% and −45.6% and −33.3% and −25.0% and −22.6% and −30.4%
  Absolute sUA concentration: 2.8 mg/dL and 3.3 mg/dL and 5.7 mg/dL and 4.0 mg/dL and 3.7 mg/dL and 4.4 mg/dL and 4.8 mg/dL (2×) and 3.9 mg/dL
[7]
  % sUA change (from baseline): −38.9% and −26.9% and −18.8% and −34.2% and −36.8% and −24.2% and −14.1% and −16.1% and −23.2%
  Absolute sUA concentration: 3.3 mg/dL and 3.8 mg/dL and 6.5 mg/dL and 4.8 mg/dL and 4.3 mg/dL (2×) and 5.0 mg/dL and 5.5 mg/dL and 5.2 mg/dL
[8]
  % sUA change (from baseline): 0%
  Absolute sUA concentration: 5.8 mg/dL and 5.6 mg/dL and 5.4 mg/dL and 7.0 mg/dL and 6.9 mg/dL and 6.7 mg/dL and 6.2 mg/dL and 6.0 mg/dL and 5.9 mg/dL
[9]
  % sUA change (from baseline): −5.2% and −1.8% and −3.7% and −1.4% (2×) and 0.0% (2×) and −11.7% and −1.7%
  Absolute sUA concentration: 5.5 mg/dL (2×) and 5.2 mg/dL and 6.9 mg/dL and 6.8 mg/dL and 6.7 mg/dL and 6.2 mg/dL and 5.3 mg/dL and 5.8 mg/dL
[10]
  % sUA change (from baseline): −12.1% and −10.7% and −9.3% and −5.7% and −7.2% and −9.0% and −1.6% and −16.7% and −10.2%
  Absolute sUA concentration: 5.1 mg/dL and 5.0 mg/dL (2×) and 4.9 mg/dL and 6.6 mg/dL and 6.4 mg/dL and 6.1 mg/dL (2×) and 5.3 mg/dL
[11]
  % sUA change (from baseline): 0.0% and 5.4% and 1.9% and 1.4% and −4.3% and 1.5% and 8.1% and −3.3% and 1.7%
  Absolute sUA concentration: 5.8 mg/dL (2×) and 5.9 mg/dL and 5.5 mg/dL and 7.1 mg/dL and 6.6 mg/dL and 6.8 mg/dL and 6.7 mg/dL and 6.0 mg/dL
[12]
  % sUA change (from baseline): −12.1% and −35.7% and −11.1% and −14.3% and −15.9% and −19.4% and −11.3% and −21.7% and −16.9%
  Absolute sUA concentration: 5.1 mg/dL and 3.6 mg/dL and 4.8 mg/dL and 6.0 mg/dL and 5.8 mg/dL and 5.4 mg/dL and 5.5 mg/dL and 4.7 mg/dL and 4.9 mg/dL
[13]
  % sUA change (from baseline): −8.6% and 0.0% (4×) and −1.9% and −4.3% and −7.5% and −8.3%
  Absolute sUA concentration: 5.3 mg/dL (2×) and 5.6 mg/dL and 7.0 mg/dL and 6.6 mg/dL and 6.2 mg/dL (2×) and 5.5 mg/dL and 5.9 mg/dL
Group 7, 1 mg once daily for 10 days, Time 96, individual subjects 4-12
  % sUA change (from baseline): −13.8% and −8.9% and −5.6% and −4.3% and −2.9% and −9.0% and −3.2% and −16.7% and −6.8%
Group 7, 1 mg once daily for 10 days, Time 102, individual subjects 4-12
  % sUA change (from baseline): −24.1% and −12.5% and −9.3% and −11.4% and −10.1% and −11.9% and −8.1% and −23.3% and −8.5%
Group 7, 1 mg once daily for 10 days, Time 108, individual subjects 4-12
  % sUA change (from baseline): −29.3% and −21.4% and −11.1% and −12.9% and −14.5% and −19.4% and −9.7% and −28.3% and −15.3%
Group 7, 1 mg once daily for 10 days, Time 120, individual subjects 4-12
  % sUA change (from baseline): −20.7% and −10.7% and −9.3% and −5.7% and −10.1% and −7.5% and −6.5% and −16.7% and −5.1%
Group 7, 1 mg once daily for 10 days, Time 144, individual subjects 4-12
  % sUA change (from baseline): −20.7% and −10.7% and −11.1% and −7.1% and −10.1% and −9.0% and −6.5% and −16.7% and −6.8%
